Data published in PMC7819943, “Rice protein-binding microarrays: a tool to detect cis-acting elements near promoter regions in rice”.
The other results are listed elsewhere or left out.

The sequences below were run against T1, OsSMF1 (Oryza sativa, UniProt Q6ZLB0 1-436) (assay: protein-binding microarray (RPBM); PBS, 2% BSA, 51.3 ng/ul salmon testes DNA, 50 uM zinc acetate, 200 nM TF, 25 C, 1 h; high values mean tight binding). Conditions: protein: recombinant; tags: N-terminal polyhistidine and DsRed monomer fusion (pET32a); chain copies: 2; label: CyDye5-dUTP incorporated in the synthesized complementary strand; 3' TTTTT single-stranded linker to array surface; dsDNA, one strand shown.
T1 sequence: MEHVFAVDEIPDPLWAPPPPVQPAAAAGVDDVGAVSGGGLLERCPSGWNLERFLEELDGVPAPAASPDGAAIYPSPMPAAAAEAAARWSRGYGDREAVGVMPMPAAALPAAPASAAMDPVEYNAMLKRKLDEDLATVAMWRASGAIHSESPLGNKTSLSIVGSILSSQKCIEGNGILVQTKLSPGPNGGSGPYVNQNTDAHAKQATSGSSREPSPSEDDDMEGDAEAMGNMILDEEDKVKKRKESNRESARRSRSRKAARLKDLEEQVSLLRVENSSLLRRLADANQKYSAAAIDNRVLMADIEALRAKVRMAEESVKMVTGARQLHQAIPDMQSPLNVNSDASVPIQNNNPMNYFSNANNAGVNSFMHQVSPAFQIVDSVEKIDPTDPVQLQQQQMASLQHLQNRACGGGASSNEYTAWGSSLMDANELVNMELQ
Outline: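 Transcription factors were made in E. coli BL21-CodonPlus as N-terminal fusions to a polyhistidine tag and DsRed, then purified on Ni–NTA. After primer extension with Cy5-dUTP and blocking with 2% BSA, a custom Agilent array was exposed for 1 h at 25 °C to 200 nM protein in PBS, 2% BSA, salmon testes DNA and 50 µM zinc acetate. Washed arrays were scanned on an Axon 4000B, and the binding signal is per-feature fluorescence intensity in arbitrary units.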

With “TTCTTCTTCAGTGTCGTGGCAATCACTATCTGAACTTTTGCGGAGTCACCTAGTGCAG” as the sequence, how does the binding signal read?
The binding signal was 5000 fluorescence intensity (a.u.).

How did the binding signal turn out when “CCGTCGACATGGCCAATCAATCAATCCTCCAGCAAATTCACGGAGTCACCTAGTGCAG” was run?
Its binding signal is 3520 fluorescence intensity (a.u.).

How did the binding signal turn out when “CACCGTGGATCCCAATCCCACGCCACATCCCACGCCAGCACGGAGTCACCTAGTGCAG” was run?
Its binding signal is 7830 fluorescence intensity (a.u.).

“GTCGCTTGTAACTTGTAAGGCGTGTGACTGTTGCCGTGATCGGAGTCACCTAGTGCAG” was tested. Which binding signal did it give?
Its binding signal is 3480 fluorescence intensity (a.u.).

“AAAGGGAGTTGTTAACCGGGACTAATCGTTTCCCCTTAGTCGGAGTCACCTAGTGCAG” was tested. Which binding signal did it give?
The binding signal was 32300 fluorescence intensity (a.u.).

How did the binding signal turn out when “CATGAACAATGTGAGGTGTCACAGTGAACAGTATCCTGATCGGAGTCACCTAGTGCAG” was run?
Its binding signal is 3490 fluorescence intensity (a.u.).

For “AGAGAGTATGGATATTGTGTATACGTCATTACGGCTGCGTCGGAGTCACCTAGTGCAG”, which binding signal is on record?
The binding signal was 9190 fluorescence intensity (a.u.).

How did the binding signal turn out when “CATGGCGTTGTGTGCCACGTCACCTTGCCGCCATCTACTTCGGAGTCACCTAGTGCAG” was run?
The binding signal was 8820 fluorescence intensity (a.u.).

For “GAAGAAGCTCGACGCCGACGTGTTCACGCAGCTCGCTCCCCGGAGTCACCTAGTGCAG”, which binding signal is on record?
The binding signal was 5920 fluorescence intensity (a.u.).

Which binding signal does the source give for “CGACCCACCCTGTGTCACGCTCGCGCCGCGGCAAGGGAGCCGGAGTCACCTAGTGCAG” here?
Its binding signal is 3290 fluorescence intensity (a.u.).

How did the binding signal turn out when “GTTTTGCCATGGGTGTTCTCTTTCTTGGTAGTTCTATTTCCGGAGTCACCTAGTGCAG” was run?
The binding signal was 3140 fluorescence intensity (a.u.).

For “GTTTTCTGTTCAACTACTGATAGCATTATCTCAATATGAGCGGAGTCACCTAGTGCAG”, which binding signal is on record?
The binding signal was 20100 fluorescence intensity (a.u.).

For “TACTAGCTATACCCATTAGCTGCTATGGGTGTTGCTGCAGCGGAGTCACCTAGTGCAG”, which binding signal is on record?
The binding signal was 3280 fluorescence intensity (a.u.).

For “GCCTTGCTTGCTAGCTAGCTTTGAAGCCAGCCAGCAACGCCGGAGTCACCTAGTGCAG”, which binding signal is on record?
Its binding signal is 20700 fluorescence intensity (a.u.).

“TGTGCCAACTTAGCGGCGGCACATGGCCCCAAACCGGAGACGGAGTCACCTAGTGCAG” was tested. Which binding signal did it give?
Its binding signal is 3310 fluorescence intensity (a.u.).

With “TACTAGCTATATATCTGTTCAACCAGTTCAATCATCCAGTCGGAGTCACCTAGTGCAG” as the sequence, how does the binding signal read?
Its binding signal is 3240 fluorescence intensity (a.u.).

With “CGCTGACGGCAGTCAGGCGCAGAGGCGAAGTGCGGCGTCACGGAGTCACCTAGTGCAG” as the sequence, how does the binding signal read?
Its binding signal is 3280 fluorescence intensity (a.u.).

For “CATATAAATTGACAACTTCTACTTAAACCTGACATGTGGGCGGAGTCACCTAGTGCAG”, which binding signal is on record?
The binding signal was 3190 fluorescence intensity (a.u.).

For “AGAAAAGCAGCAGACTACGAATCTGTAGCCAGCTGCAGCACGGAGTCACCTAGTGCAG”, which binding signal is on record?
The binding signal was 22600 fluorescence intensity (a.u.).

“CGGTACCGCCGCCGACGCCGCACTTCCCCTCGCGCCGCGCCGGAGTCACCTAGTGCAG” was tested. Which binding signal did it give?
The binding signal was 3480 fluorescence intensity (a.u.).

Which binding signal does the source give for “CCCTTCTCCACCATCAACTTCGCCACTCGTCGGAGCGCCGCGGAGTCACCTAGTGCAG” here?
The binding signal was 3630 fluorescence intensity (a.u.).

Which binding signal does the source give for “GCTCTGCTGTACCCCGCCACGCCGCTCCCTCGCAGTCACCCGGAGTCACCTAGTGCAG” here?
The binding signal was 3260 fluorescence intensity (a.u.).

Which binding signal does the source give for “TGATTGGTTCTGACACGACATAGATGCATACTGATATGCTCGGAGTCACCTAGTGCAG” here?
Its binding signal is 13800 fluorescence intensity (a.u.).
